No constants are given. Whether binding was seen depends on the method and setting. For some assays here: In cells and extracts the contact can be indirect. For some assays here: Binding calls can cover weak binding; strength is not graded here. For some assays here: Where a sequence is shown, tags or fusion partners need not be part of it.

By UniProt entry, the sequences of proteins in these tests, tags left out. Where a name states a change or a piece, a line headed by the entry shows the natural chain unless it says otherwise.
UniProt Q9SSS9: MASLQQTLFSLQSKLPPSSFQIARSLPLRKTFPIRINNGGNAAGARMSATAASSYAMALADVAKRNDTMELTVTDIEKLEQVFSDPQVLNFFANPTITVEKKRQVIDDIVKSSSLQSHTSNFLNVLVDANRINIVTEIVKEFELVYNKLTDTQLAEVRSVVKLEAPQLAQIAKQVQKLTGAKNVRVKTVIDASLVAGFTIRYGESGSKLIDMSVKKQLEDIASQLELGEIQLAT

The source of these data is article PMC9806626.

Assay [1] deals with T1, BD-AtCGL160N (AtCGL160 29–206 aa fused to the GAL4 DNA-binding domain) (Arabidopsis thaliana) (UniProt O82279).
T1 sequence: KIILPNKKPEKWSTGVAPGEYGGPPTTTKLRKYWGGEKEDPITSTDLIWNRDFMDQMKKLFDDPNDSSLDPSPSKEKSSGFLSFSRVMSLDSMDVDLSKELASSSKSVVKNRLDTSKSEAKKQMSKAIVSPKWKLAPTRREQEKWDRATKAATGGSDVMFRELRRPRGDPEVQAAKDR
The experiment in a line: two-hybrid; Matchmaker GAL4 system (Clontech), bait pGBKT7, prey pGADT7, yeast AH109; growth on SD -Leu/-Trp/-His/-Ade in serial dilutions.

For assay [2], the target named is CF1-CFO holo-complex (chloroplast ATP synthase), endogenous (Arabidopsis thaliana (endogenous in Col-0)). In words: cross-linking; WT (Col-0) thylakoid membranes treated with 2.5 mM DSP for 20 min on ice, quenched with 60 mM Tris/HCl pH 7.5; BN/SDS-PAGE (2D) and immunodetection of AtCGL160 and the γ subunit; compared with untreated thylakoids.

Turning to AD-AtCGLD11 (Arabidopsis thaliana), in assay [1], the binding result is “no binding”.

Turning to AD-CF1-γ, the binding entry in assay [1] is “no binding”.

For the molecule AD-CF1-δ (from UniProt Q9SSS9), in assay [1], the binding result was “no binding”.

On to “AD-CFO-b′ (soluble domain, 109–219 aa) (domain or fragment)”, for which the binding result in assay [1] was “no binding”.

B1: AtCGL160, endogenous in wild-type (Col-0) thylakoids (protein, UniProt O82279 47-350)
chain: GEYGGPPTTTKLRKYWGGEKEDPITSTDLIWNRDFMDQMKKLFDDPNDSSLDPSPSKEKSSGFLSFSRVMSLDSMDVDLSKELASSSKSVVKNRLDTSKSEAKKQMSKAIVSPKWKLAPTRREQEKWDRATKAATGGSDVMFRELRRPRGDPEVQAAKDREQYFKLKNKIQVLTLGIGGVGLVSAYISYTPEIALSFGAGLLGSLAYMRMLGNSVDAMADGARGVAKGAANQPRLLVPVVLVMIFNRWNAILVPEYGFMHLELIPMLVGFFTYKIATFFQAIEEAISITTQKPESISPDTQASD
B1: in assay [2], the binding result is “binds”.
